The results in this text go back to publication PMC4631838, “Molecular architecture of the yeast Mediator complex” (eLife, 2015).

Amino acid sequences for entries named in this document (tags omitted).
UniProt P32569: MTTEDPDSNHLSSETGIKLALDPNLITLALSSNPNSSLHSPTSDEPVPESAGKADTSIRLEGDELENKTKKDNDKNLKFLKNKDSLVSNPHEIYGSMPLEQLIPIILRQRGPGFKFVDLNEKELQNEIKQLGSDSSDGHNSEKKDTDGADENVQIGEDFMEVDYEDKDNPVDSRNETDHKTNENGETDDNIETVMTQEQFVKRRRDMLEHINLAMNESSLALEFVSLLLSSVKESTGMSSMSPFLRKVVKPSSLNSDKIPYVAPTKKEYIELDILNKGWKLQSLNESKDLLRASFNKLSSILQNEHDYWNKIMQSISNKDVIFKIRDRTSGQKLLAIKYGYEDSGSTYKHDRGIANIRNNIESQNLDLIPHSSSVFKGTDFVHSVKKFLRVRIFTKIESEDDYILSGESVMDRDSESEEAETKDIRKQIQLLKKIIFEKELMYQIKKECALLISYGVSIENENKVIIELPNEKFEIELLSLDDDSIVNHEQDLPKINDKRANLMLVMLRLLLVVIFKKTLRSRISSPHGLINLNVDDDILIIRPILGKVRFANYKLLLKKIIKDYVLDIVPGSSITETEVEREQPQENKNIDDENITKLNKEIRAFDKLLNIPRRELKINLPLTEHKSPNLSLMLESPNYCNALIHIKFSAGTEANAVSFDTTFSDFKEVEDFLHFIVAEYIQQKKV
UniProt P38633: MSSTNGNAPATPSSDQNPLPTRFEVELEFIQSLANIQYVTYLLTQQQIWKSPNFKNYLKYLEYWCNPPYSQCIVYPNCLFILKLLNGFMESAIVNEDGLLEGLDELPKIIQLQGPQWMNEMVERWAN

These are yes or no findings as the source states them, for the method shown. In cells and extracts the contact can be indirect. A yes stands for co-enrichment or nearness to the bait. Other partners may have been found.

The assay concerns the target Med17 (Srb4), Mediator Head module subunit (S. cerevisiae) (UniProt P32569). The assay is described as follows: affinity purification with mass spectrometry; native holoenzyme from S. cerevisiae whole-cell extract; capture on an IgG column by TAP on Med17 and protein G on Rpb1, wash in A500 buffer, stepwise TEV and 3C cleavage, ion exchange (HiTrap FFQ), Superose 6; subunits shown by SDS PAGE and mass spectrometry.

In the case of “Med31 (Soh1), Mediator Middle module subunit (from UniProt P38633 1-127)”, the binding entry was “binds”.

B1: Med6, Mediator Head module subunit (protein, UniProt P38782 1-295)
chain: MNVTPLDELQWKSPEWIQVFGLRTENVLDYFAESPFFDKTSNNQVIKMQRQFSQLNDPNAAVNMTQNIMTLPDGKNGNLEEEFAYVDPARRQILFKYPMYMQLEEELMKLDGTEYVLSSVREPDFWVIRKQRRTNNSGVGSAKGPEIIPLQDYYIIGANIYQSPTIFKIVQSRLMSTSYHLNSTLESLYDLIEFQPSQGVHYKVPTDTSTTATAATNGNNAGGGSNKSSVRPTGGANMATVPSTTNVNMTVNTMGTGGQTIDNGTGRTGNGNMGITTEMLDKLMVTSIRSTPNYI
Consider B1, for which the binding entry is given as “binds”.
